In patent publication US20090053745A1:

Biological target: Snapin(1-68) (α-GFP)
Assay: GST affinity chromatography of cell lysate, Western blot with α-GFP

- binding: no binding
B1: GST-cypin (enzyme, UniProt Q9WTT6 1-454, looked up, not shown: a dimerising Fc or GST)
chain: MCAARRRELALIFRGTFVHSTWTCPMEVLRDHLLGVSDSGKIVFLEESSQQEKLAKEWCFKPCEIRELSHHEFFMPGLVDTHIHAPQYAFAGSNVDLPLLDWLNKYTFPTEKRFQSTDVAEEVYTRVVRRTLKNGTTTACYFGTIHTDSSLILAEITDKFGQRAFVGKVCMDLNNTVPEYKETTEESVKETERFVSEMLQKNYSRVKPIVTPRFSLSCTETLMSELGNIAKTHDLYIQSHISENREEIEAVKSLYPGYKNYTDVYDKNNLLTNKTVMAHGCYLSEEELNVFSERGASIAHCPNSNLSLSSGLLNVLDVLKHKVKIGLGTDVAGGYSYSMLDAIRRAVMVSNVLLINKVNEKSLTLKEVFRLATLGGSQALGLDREIGNFEVGKDFDALLINPRASDSPIDLFCGDFVGDISEAVIQKFLYLGDDRNIEEVYVGGKQVVPFSSSV

These are yes or no findings as the source states them, for the method shown. Sequences can lack the tags named with a protein.
